Test results as given in patent US11485769B2, “Peptides and combination of peptides for use in immunotherapy and methods for generating scaffolds for the use against pancreatic cancer and other cancers” (Immatics Biotechnologies GmbH, priority 2015, dated 2022).

Experiments:
[1] = system: tumors compared to a panel of normal tissues; assay: Identification and label-free LC-MS quantitation of HLA-presented tumor associated peptides (presentation profiles/scores); parameters: species or system human; key to Peptide Presentation (presentation score): very highly over-presented on tumors compared to a panel of normal tissues (+++); highly over-presented on tumors compared to a panel of normal tissues (++); over-presented on tumors compared to a panel of normal tissues (+); details: for Peptide Presentation (presentation score): over-presentation on tumors compared to a panel of normal tissues, label-free LC-MS quantitation of HLA peptides
[2] = system: source genes (mRNA) in tumors compared to a panel of normal tissues; assay: Expression profiling of genes encoding the peptides (Affymetrix microarray, expression scores); parameters: species or system human; key: very highly over-expressed in tumors compared to a panel of normal tissues (+++); highly over-expressed in tumors compared to a panel of normal tissues (++); over-expressed in tumors compared to a panel of normal tissues (+); details: over-expression of the source gene in tumors compared to a panel of normal tissues; Affymetrix microarrays

With “12: peptide found in PTPN14 (gene looked up) (AQYKFVYQV; listed as Homo sapiens) [compound 12]” the “peptide additionally detected on esophageal cancers (positive/measured samples)” value ([1]; esophageal cancers) was 2/17, the “peptide additionally detected on kidney cancers (positive/measured samples)” value ([1]; kidney cancers) was 1/18 and the “peptide additionally detected on lung cancers (positive/measured samples)” value ([1]; lung cancers) was 1/91. The “peptide additionally detected on ovarian cancers (positive/measured samples)” value ([1]; ovarian cancers) was 1/20, the “Peptide Presentation (presentation score)” value (from here on “Peptide Presentation”) [1] was “+++” and the “peptide additionally detected on stomach cancers (positive/measured samples)” value ([1]; stomach cancers) was 1/46. For the same substance, the “Gene Expression (expression score)” value [2] was “+”.
With “175: peptide found in CCND1 (gene looked up) (ALLESSLRQA; listed as Homo sapiens) [compound 175]” the “Peptide Presentation” value [1] was “++” and the “Gene Expression (expression score)” value [2] was “+”.
“44: peptide found in SLC6A15 (gene looked up) (ILAQVGFSV; listed as Homo sapiens) [compound 44]” was tested, and the “Peptide Presentation” value [1] was “+++” and the “Gene Expression (expression score)” value [2] was “++”.

For some assays here: Expression grades refer to the transcript from which the peptide derives; gene names, where given, were looked up from the sequence.
